We go through 1 substance from PMC8901487.

Protein sequences, listed by entry. Tags and fused reporters are not part of them.
UniProt Q6ZTA4: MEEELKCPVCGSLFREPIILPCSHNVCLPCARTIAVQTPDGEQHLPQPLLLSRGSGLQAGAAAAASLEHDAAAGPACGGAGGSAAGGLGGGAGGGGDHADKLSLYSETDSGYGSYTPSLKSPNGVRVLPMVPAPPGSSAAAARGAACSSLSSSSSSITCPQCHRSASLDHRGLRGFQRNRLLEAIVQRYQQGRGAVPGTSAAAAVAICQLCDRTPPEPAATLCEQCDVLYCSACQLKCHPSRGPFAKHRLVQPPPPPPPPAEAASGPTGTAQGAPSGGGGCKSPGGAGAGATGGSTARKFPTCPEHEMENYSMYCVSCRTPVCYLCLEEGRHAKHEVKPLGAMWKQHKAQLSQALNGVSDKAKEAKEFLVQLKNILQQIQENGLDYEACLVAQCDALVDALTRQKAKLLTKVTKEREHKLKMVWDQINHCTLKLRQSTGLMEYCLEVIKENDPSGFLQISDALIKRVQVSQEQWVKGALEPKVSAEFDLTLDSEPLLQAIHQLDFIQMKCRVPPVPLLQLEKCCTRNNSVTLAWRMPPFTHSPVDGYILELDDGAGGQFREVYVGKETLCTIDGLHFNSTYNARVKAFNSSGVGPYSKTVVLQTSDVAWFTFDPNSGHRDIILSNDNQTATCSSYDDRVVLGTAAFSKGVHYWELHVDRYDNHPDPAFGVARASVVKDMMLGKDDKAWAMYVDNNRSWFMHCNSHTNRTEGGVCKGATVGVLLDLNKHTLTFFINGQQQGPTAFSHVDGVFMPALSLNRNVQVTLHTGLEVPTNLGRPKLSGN
UniProt Q9UKB1: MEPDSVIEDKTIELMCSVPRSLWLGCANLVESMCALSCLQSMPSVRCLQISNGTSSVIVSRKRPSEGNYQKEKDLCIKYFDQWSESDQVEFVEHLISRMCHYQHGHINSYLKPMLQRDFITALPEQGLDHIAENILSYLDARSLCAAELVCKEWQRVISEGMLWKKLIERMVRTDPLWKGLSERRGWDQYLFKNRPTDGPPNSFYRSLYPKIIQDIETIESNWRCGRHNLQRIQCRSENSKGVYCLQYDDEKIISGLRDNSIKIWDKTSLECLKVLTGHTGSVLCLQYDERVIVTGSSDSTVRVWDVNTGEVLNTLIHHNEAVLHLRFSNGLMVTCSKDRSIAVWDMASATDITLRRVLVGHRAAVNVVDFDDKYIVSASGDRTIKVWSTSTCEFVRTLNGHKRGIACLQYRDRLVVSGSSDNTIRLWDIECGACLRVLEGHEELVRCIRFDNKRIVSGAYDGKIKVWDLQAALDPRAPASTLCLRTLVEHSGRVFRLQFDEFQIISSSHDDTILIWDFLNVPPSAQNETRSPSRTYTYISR

Results are given in words; binding and its absence hold for the method and conditions named. In cells and extracts the contact can be indirect. These calls come from enrichment with a bait or labelling near it, and not all partners need be listed.

In this assay the target is FLAG-tagged TRIM67 (wild type, full length) (human) (UniProt Q6ZTA4). Nature of the assay: affinity purification with mass spectrometry; 293T cells transfected with pTRIP-TRIM67-3FLAG or empty vector, NP40 lysis buffer, anti-FLAG M2 affinity gel at 4°C overnight, five washes, elution with 3X FLAG peptide, LC-MS/MS.

Take “endogenous β-TrCP (from UniProt Q9UKB1 1-542)”: the binding result is reported as “binds”.
